# From the supplement of paper PMC10338343
# ± gives the standard deviation. The entries are a selection whose mix differs from that of the whole data set. Many of these values have a large error.
# Tested on: MIWI (PIWIL1) piRISC loaded with L1MC piRNA (30 nt)
# Test: pre-steady-state target cleavage rate (min^-1); MIWI and MILI are mouse PIWI proteins and EfPiwi is from a freshwater sponge; tags in brackets are library labels; higher = faster piRNA-guided slicing of the target
# Conditions: guide: L1MC piRNA 5'p-UAACUAAAUACUAUGCAAGCUGUAGGUCCU; auxiliary factor: none (no GTSF1)
# Outline: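 Using HEPES–potassium acetate buffer at 33 °C, 1 nM active affinity-purified piRISC with a single synthetic guide was mixed with 0.1 nM transcribed, DNA-blocked target RNA library for 0–8 or 0–960 min, with or without 500 nM GTSF1 partner protein. Uncleaved targets were sequenced and normalised to depth and to weakly complementary targets, and three trials were pooled with k3 capped at 0.0001 min^-1. A burst-and-steady-state fit gave the pre-steady-state cleavage rate.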
row,Sequence,pre-steady-state target cleavage rate
1,UCGACCUACAGCUUGCAUAGUAAUUACAAA,0.00121 ± 0.007
2,AGGACCUACAGGAUGCAUAGUAUUUAGAAA,0.00251 ± 0.0026
3,AGGACCUACACGUUGCAUAGUAUUUACAAA,0.00234 ± 0.0033
4,AGGACCUACAGCUUGCUAUGUAUUUAGAAA,0.000977 ± 0.0061
5,AGGACCUACAGGAUGCAUAGUAUUUUCAAA,0.00114 ± 0.0048
6,UGGACCUACAGCUUCCAUAGUAUUAAGUUA,0.000482 ± 0.0073
7,AGGACCUACAGCUUGGUAAGUAUUUACAAA,0.000196 ± 0.016
8,UCCACCUACAGGAAGCAUAGUAUUUUCAAA,0.000599 ± 0.01
9,UCGACCUACAGCUUGCAUACAAUUUUCAAA,0.0007 ± 0.011
10,UGGACCUACAGCUUGCAAUGUAUUUUCAAA,0.00025 ± 0.0089
11,UGGACCUACAGCUUGCAUUAGUAUUUAGUUA,0.000469 ± 0.0074
12,UGGACCUACAGCUUGCAUAGUAAAUUCAAA,0.000308 ± 0.0089
13,UCCUGGAUGUCGAACCAUAGAUUUUAGUUA,0.000276 ± 0.021
14,AGGACCUACAGCUUCGUUAGUAUUUUCAAA,0.000214 ± 0.014
15,AGGACCUACAGCUUGCAUUCAAUUUACAAA,0.000625 ± 0.012
16,UCGACCUACAGCUUCGAUAGUAUUUACAAA,0.000813 ± 0.0076
17,UCCACCUACAGCUUGCAUAGUAAAUACAAA,0.000298 ± 0.012
18,UCCUGGAUGUCGAACGUAACUAAUUAGUUA,0.000112 ± 0.038
19,UCCUCCUACAGCUUGCAUAGUAUUAACAAA,0.00138 ± 0.0056
20,AGGACCUACAGCUUCCAUAGUAUUAAGUUA,0.00102 ± 0.0076
21,UCCUGGAUGUCGUUGCAUAGUAUUAUGUUA,0.000634 ± 0.013
22,AGGACCUACAGCUUGCAAUCUAUUUAGAAA,0.000343 ± 0.0072
23,AGGACCUACACGUUGCAUAGUAUUUUCAAA,0.00184 ± 0.0033
24,UCCACCUACAGCUUCGAUAGUAUUUUCAAA,0.000154 ± 0.019

# Given with bars between the fields: part of the list above.
row | Sequence | pre-steady-state target cleavage rate
4 | AGGACCUACAGCUUGCUAUGUAUUUAGAAA | 0.000977 ± 0.0061
5 | AGGACCUACAGGAUGCAUAGUAUUUUCAAA | 0.00114 ± 0.0048
